# The other results are listed elsewhere or left out. Shown are side measurements of this screen, not its main read-out; they come without a call. The list favours compounds with an active or inconclusive main result. Words in brackets tell the shape of the fitted curve; partial curves, single points and poor fits give uncertain potencies.
# Assay: qHTS for identification of novel therapeutic agents for treatment of microphthalmiaassociated transcription factor (MiT) renal cell carcinoma (RCC) (AID 1963991)
# Details: CellTiter-Glo, 48 h; for z-score: stronger effect = lower value
# Procedure, shortened: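 Three TFE3-fusion RCC cell lines (UOK109, UOK124, UOK145), 500 cells/well, were exposed to the 1912-compound MIPE 4.0 library for 48 hours at 37 C. Viability was read by CellTiter-Glo luminescence, normalised to DMSO (100%) and empty wells (0%), with 11-concentration curve fits.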
# [1] = TFE3-RCC UOK109 viability, measured here: UOK109 Z-AUC
# [2] = TFE3-RCC viability, measured here: UOK124 Z-AUC
# [3] = TFE3-RCC viability, measured here: UOK124 cell viability
# [4] = TFE3-RCC viability, measured here: UOK145 Z-AUC
# [5] = TFE3-RCC viability, measured here: UOK145 cell viability
SMILES,z-score [1],z-score [2],AC50 [3],z-score [4],AC50 [5]
CC[C@@]1([C@@H]2O[C@@H]([C@H]3O[C@@](O)(CO)[C@H](C)C[C@H]3C)C[C@H]2C)CC[C@H]([C@]2(C)CC[C@]3(C[C@H](O)[C@@H](C)[C@@H]([C@@H](C)[C@@H](OC)[C@H](C)C(=O)O)O3)O2)O1,0.362,-0.718,"0.645 µM [falling, full curve]",0.372,"0.257 µM [falling, full curve]"
CN(C)CCCN=c1c2ccccc2n(C)c2[nH]c(=O)n(C)c(=O)c12,-0.502,-0.105,"9.35 µM [falling, full curve]",-1.38,"5.9 µM [falling, partial curve]"
COc1cc(C[C@@H](CO)[C@H](CO)Cc2ccc(O)c(OC)c2)ccc1O,-0.81,-0.403,"16.6 µM [falling, partial curve]",-0.299,"3.72 µM [falling, full curve]"
CCOC(=O)[C@H](CCc1ccccc1)N[C@H]1CS[C@H](c2cccs2)CN(CC(=O)O)C1=O,-0.634,-0.00136,"4.18 µM [falling, full curve]",-0.313,"2.64 µM [falling, full curve]"
COc1cc(N2CCC(C(N)=O)CC2)ccc1Nc1nc(N)c(Cl)c(Nc2ccccc2S(=O)(=O)C(C)C)n1,-0.722,-0.374,"0.0935 µM [falling, partial curve, poor fit]",0.00706,"9.35 µM [falling, partial curve]"
CNC(=O)c1cccc(-c2ccc3c(N4CCOC[C@H]4C)nc(N4CCOC[C@H]4C)nc3n2)c1,-1.07,-0.151,"0.148 µM [falling, full curve]",-1.95,"0.118 µM [falling, full curve]"
